Reference: the supplement of paper PMC10849652
This is one part of the list. Residues, ends and D or L forms follow the SMILES beside them. *: point of attachment. Cbz = O=C(OCc1ccccc1)*

Protein sequences, listed by entry. Tags and fused reporters are not part of them. Lines headed by an entry give the natural chain unless they say otherwise; changes in a name come on top.
UniProt P02794, whole entry, looked up: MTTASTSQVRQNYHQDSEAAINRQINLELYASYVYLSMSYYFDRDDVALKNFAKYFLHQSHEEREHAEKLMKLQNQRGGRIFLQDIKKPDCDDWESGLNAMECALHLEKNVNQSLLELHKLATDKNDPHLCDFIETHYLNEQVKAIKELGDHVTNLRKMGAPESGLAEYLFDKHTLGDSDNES
UniProt Q92820: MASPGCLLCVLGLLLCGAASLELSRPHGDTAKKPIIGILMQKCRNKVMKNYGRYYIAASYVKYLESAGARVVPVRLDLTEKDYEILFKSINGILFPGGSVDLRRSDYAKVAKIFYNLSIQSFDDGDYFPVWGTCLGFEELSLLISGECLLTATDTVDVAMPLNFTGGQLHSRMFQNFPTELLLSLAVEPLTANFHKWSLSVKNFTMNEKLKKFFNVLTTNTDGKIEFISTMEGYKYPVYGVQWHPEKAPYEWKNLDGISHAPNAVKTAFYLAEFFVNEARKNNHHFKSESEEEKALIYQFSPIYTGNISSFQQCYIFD
UniProt Q9C0B1, whole entry, looked up: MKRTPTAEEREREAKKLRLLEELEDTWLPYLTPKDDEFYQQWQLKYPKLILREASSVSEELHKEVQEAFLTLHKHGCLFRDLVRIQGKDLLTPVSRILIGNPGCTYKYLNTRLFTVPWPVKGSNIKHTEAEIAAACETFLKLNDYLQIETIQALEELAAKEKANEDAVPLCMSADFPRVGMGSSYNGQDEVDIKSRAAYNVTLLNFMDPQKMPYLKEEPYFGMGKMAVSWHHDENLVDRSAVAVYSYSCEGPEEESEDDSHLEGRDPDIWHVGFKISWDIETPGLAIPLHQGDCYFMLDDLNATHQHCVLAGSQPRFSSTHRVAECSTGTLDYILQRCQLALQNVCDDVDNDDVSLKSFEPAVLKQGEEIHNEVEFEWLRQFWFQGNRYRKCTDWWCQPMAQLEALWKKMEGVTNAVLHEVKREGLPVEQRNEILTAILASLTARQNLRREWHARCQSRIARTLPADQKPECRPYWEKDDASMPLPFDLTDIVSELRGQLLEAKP
UniProt P22102: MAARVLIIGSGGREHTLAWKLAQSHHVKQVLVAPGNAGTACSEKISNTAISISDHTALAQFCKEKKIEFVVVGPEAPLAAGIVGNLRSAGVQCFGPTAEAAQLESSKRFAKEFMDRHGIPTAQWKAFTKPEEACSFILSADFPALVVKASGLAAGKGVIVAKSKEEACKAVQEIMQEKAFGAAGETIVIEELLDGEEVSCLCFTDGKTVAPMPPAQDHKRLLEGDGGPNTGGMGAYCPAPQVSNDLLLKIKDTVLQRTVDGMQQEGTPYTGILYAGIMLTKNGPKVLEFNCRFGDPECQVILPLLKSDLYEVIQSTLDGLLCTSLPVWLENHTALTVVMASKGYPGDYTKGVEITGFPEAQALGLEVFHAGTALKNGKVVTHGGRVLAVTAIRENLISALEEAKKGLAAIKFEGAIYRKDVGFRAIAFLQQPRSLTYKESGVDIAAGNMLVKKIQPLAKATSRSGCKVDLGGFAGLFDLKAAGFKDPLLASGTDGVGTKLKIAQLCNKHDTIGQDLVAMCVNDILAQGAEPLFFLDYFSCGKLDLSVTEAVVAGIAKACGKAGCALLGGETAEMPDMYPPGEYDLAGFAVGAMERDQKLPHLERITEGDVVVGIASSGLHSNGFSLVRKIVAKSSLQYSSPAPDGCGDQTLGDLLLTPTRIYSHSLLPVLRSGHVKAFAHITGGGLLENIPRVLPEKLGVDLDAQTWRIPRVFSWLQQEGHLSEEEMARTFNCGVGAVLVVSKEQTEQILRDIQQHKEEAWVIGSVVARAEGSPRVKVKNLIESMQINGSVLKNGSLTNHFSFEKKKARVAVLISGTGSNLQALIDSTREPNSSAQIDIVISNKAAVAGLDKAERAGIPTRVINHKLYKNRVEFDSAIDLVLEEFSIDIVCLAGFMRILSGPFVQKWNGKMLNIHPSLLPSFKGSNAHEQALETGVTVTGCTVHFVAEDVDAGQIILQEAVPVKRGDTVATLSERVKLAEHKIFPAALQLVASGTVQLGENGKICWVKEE
UniProt P04062: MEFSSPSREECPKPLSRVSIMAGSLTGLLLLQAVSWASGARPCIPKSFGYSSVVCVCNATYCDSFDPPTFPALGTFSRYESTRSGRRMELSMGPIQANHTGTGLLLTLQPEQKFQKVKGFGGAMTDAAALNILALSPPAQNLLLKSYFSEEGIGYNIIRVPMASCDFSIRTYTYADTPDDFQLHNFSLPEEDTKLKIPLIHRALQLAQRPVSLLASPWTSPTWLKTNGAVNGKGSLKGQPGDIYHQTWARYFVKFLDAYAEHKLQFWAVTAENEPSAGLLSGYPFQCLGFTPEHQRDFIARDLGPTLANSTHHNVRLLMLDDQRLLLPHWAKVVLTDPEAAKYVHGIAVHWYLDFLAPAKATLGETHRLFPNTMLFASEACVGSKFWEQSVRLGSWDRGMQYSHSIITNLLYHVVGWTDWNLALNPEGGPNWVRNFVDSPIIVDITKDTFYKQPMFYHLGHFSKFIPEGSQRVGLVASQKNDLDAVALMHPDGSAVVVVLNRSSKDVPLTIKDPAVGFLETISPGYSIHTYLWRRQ
UniProt P35637: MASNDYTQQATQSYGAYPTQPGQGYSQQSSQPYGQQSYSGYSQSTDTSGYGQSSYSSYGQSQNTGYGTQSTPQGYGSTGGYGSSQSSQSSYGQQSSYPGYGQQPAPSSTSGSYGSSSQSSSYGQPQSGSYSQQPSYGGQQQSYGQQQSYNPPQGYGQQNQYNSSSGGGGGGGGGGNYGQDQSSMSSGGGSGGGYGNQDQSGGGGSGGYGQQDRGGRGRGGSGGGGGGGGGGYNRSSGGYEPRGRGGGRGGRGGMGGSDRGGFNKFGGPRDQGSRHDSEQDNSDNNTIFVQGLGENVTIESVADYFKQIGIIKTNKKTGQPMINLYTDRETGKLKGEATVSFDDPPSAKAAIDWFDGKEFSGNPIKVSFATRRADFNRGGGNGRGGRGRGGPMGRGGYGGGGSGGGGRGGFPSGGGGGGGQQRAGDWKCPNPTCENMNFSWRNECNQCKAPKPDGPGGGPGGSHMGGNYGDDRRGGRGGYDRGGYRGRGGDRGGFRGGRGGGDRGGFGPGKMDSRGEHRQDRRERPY
UniProt P04406: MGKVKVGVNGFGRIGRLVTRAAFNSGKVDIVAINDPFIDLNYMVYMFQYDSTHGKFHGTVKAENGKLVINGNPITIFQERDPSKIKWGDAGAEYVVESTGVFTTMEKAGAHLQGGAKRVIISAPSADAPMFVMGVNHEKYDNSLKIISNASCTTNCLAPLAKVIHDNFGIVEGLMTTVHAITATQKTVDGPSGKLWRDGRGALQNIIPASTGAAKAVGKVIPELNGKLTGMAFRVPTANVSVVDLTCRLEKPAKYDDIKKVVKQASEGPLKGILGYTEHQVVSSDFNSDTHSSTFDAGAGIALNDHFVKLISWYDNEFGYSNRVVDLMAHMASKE
UniProt Q9UN86: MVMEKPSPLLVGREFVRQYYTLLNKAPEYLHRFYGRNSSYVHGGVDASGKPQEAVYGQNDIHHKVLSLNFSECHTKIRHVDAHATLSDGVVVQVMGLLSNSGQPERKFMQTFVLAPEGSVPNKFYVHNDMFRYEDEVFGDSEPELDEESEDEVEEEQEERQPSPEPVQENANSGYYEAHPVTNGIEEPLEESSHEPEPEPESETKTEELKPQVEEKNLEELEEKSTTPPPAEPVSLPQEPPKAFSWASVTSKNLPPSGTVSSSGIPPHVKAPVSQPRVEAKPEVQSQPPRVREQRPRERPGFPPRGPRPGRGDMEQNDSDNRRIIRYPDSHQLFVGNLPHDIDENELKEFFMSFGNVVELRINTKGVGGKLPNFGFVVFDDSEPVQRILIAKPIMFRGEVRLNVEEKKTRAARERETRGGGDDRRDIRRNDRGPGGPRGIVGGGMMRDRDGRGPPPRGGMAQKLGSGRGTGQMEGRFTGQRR
UniProt O75600: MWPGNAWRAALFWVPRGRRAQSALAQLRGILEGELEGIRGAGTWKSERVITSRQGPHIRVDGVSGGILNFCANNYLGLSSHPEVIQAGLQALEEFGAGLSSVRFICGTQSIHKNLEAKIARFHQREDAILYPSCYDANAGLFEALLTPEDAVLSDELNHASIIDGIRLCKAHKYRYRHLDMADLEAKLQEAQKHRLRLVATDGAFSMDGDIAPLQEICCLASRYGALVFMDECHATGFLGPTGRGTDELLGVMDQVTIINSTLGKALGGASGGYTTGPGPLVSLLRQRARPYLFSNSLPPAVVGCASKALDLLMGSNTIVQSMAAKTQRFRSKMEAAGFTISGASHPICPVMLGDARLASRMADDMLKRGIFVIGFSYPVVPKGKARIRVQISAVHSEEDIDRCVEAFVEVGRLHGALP
UniProt Q86YP4: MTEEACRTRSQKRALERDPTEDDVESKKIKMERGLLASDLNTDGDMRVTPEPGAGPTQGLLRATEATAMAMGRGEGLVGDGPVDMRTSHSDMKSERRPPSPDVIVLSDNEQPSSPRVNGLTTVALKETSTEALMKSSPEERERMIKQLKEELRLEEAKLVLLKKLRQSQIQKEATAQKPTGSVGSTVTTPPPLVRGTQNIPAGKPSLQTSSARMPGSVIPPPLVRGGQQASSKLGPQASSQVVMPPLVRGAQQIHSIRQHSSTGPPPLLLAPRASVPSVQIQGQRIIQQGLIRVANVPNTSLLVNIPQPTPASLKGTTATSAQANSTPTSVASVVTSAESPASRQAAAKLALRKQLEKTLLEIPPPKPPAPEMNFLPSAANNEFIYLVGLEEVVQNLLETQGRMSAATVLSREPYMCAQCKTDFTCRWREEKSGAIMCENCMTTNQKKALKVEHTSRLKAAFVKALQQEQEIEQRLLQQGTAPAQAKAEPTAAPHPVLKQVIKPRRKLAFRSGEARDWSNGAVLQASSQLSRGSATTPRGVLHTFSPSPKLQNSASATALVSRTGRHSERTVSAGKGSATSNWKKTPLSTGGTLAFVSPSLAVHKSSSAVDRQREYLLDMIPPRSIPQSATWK
UniProt P57678: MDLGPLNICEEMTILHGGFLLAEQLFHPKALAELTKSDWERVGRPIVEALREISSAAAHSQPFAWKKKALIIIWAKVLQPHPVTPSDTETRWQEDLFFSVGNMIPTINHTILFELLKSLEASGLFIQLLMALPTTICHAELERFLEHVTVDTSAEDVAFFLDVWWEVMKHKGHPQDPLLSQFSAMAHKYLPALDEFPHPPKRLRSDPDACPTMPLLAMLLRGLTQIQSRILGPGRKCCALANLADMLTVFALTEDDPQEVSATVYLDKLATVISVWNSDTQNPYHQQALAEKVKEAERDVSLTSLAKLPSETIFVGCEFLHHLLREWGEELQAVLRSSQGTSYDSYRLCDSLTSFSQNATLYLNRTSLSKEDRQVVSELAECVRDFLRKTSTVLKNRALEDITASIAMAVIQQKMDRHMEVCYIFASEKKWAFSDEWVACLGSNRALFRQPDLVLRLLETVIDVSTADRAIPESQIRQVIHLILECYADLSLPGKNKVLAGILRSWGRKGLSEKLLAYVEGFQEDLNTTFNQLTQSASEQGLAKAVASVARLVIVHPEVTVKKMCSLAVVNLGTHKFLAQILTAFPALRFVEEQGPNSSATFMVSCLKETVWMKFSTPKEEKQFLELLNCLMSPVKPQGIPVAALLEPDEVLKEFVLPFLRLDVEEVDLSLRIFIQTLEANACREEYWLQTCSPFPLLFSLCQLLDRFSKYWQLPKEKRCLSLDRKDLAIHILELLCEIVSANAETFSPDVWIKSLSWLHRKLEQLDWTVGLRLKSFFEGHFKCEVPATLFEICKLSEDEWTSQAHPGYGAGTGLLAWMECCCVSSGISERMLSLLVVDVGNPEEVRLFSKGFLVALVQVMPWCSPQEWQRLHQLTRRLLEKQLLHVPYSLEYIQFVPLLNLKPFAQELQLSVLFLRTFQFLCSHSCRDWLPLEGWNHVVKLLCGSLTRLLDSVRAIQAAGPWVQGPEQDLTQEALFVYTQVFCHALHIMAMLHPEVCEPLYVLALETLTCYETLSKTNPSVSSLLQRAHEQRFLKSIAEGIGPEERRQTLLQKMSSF
UniProt Q13283, whole entry, looked up: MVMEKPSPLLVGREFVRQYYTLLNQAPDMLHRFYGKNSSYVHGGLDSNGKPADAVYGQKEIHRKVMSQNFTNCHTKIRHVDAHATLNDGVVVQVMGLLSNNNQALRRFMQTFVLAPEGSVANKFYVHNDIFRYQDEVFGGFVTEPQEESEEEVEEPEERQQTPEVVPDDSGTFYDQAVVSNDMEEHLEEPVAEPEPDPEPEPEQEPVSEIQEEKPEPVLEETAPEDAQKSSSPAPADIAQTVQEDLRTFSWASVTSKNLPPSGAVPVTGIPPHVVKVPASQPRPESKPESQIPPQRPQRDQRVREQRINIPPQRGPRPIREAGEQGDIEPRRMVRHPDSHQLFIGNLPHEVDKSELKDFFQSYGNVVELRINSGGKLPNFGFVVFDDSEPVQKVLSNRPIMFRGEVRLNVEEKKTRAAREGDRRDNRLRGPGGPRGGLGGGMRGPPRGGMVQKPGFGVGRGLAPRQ

How the values were obtained:
Assay in all cases: log2 fold change, soluble protein after heating vs DMSO (PISA); higher = thermal stabilisation; K562 cells, 10 uM, 30 min; active = over 0.2 and 3.5 SD of the protein, either way, in both replicates (recomputed)
erlotinib = compound: C#Cc1cccc(Nc2ncnc3cc(OCCOC)c(OCCOC)cc23)c1 [erlotinib]
Procedure, shortened: (§1)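 Soluble protein was quantified by TMTpro 16plex LC-MS/MS after channel sums were equalised. It was obtained as the supernatant after 21,000xg for 90 min from pooled aliquots of K562 cells (2×10^6 cells/mL, 10 μM compound, 30 min) heated for 3 min across 48°C-58°C and extracted in PBS with 0.5% NP-40 at 4°C. Thermal stability values are relative to control samples and come from duplicates. They are given as log2 fold changes.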

[1] = compound: C/C(=N\NC(=O)C1=CC(=CC=C1)S(=O)(=O)N2CCOCC2)/C3=C(C=CC(=C3)Cl)O
Procedure, shortened: as §1

[2] = compound: C1=CC(=C(C=C1Cl)C2=NC3=NC=CN=C3C(=N2)NC4=CC=NC=C4)F
Procedure, shortened: as §1

[3] = compound: C1=CC(=CC=C1C2=NC3=C(N2)C=C(C=C3)C(=O)N)OC4=CC=C(C=C4)Cl
Procedure, shortened: as §1

[4] = compound: C1=CC2=C(C=CC(=C2)/C=C\3/C(=O)NC(=NCC4=CC=CS4)S3)N=C1
Procedure, shortened: as §1

[5] = compound: C1=CC2=NC=CN=C2C=C1/C=C/3\C(=O)NC(=O)S3
Procedure, shortened: as §1

[6] = compound: C1=CC=C(C=C1)C2=NC(=C(N2)C3=CC=NC=C3)C4=CC(=C(C=C4)Cl)O
Procedure, shortened: as §1

[7] = compound: C1=CC=C2C(=C1)C3=NNC4=CC=CC(=C43)C2=O
Procedure, shortened: as §1

[8] = compound: C1CCN(C1)C(=O)NC2=CC=CC(=C2)NC3=NC=C(C(=N3)NCCC4=CN=CN4)Br
Procedure, shortened: as §1

[9] = compound: C1CN(CCC1(CC2=CC=C(C=C2)Cl)N)C3=NC=NC4=C3C=CN4
Procedure, shortened: as §1

IRAK-1-4 Inhibitor I = compound: C1COCCN1CCN2C3=CC=CC=C3N=C2NC(=O)C4=CC(=CC=C4)[N+](=O)[O-] [IRAK-1-4 Inhibitor I]
Procedure, shortened: as §1

ibrutinib = compound: C=CC(=O)N1CCC[C@@H](n2nc(-c3ccc(Oc4ccccc4)cc3)c3c(N)ncnc32)C1 [ibrutinib]
Procedure, shortened: as §1

[10] = compound: CC(=O)c1cnc2ccc(-c3cc(Cl)c(O)c(Cl)c3)nc2c1N[C@H]1CC[C@H](CN(C)C)CC1
Procedure, shortened: as §1

ralimetinib = compound: CC(C)(C)Cn1c(N)nc2ccc(-c3[nH]c(C(C)(C)C)nc3-c3ccc(F)cc3)nc21 [ralimetinib]
Procedure, shortened: as §1

[11] = compound: CC(C)(O)CC(=O)NCCn1ccc2ncnc(Nc3ccc(Oc4cccc(C(F)(F)F)c4)c(Cl)c3)c21
Procedure, shortened: as §1

[12] = compound: CC(C)C1=C2N=C(C=C(N2N=C1)NCC3=CC=CC=C3)NCCCCCCN
Procedure, shortened: as §1

[13] = compound: CC(C)C[C@@H](C=O)NC(=O)[C@H](CC(C)C)NC(=O)[C@H](CC(C)C)NC(=O)OCc1ccccc1
Procedure, shortened: as §1

pinometostat = compound: CC(C)N(C[C@H]1O[C@@H](n2cnc3c(N)ncnc32)[C@H](O)[C@@H]1O)[C@H]1C[C@@H](CCc2nc3cc(C(C)(C)C)ccc3[nH]2)C1 [pinometostat]
Procedure, shortened: as §1

[14] = compound: CC1=C(C(CC(=O)N1)C2=CC=C(C=C2)C(F)(F)F)C(=O)NC3=C(C=C4C(=C3)C=NN4)F
Procedure, shortened: as §1

[15] = compound: CC1=C(C2=C(C=C1)C(=O)C3=CC=CC=C3N2CCCN)C
Procedure, shortened: as §1

Measured: log2 fold change

GALNT5 (UniProt Q7Z7M9)
inactive: erlotinib 0.026 | [1] -0.009 | [2] 0.031 | [3] -0.042 | [4] 0.032 | [5] -0.006 | [6] 0.015 | [7] 0.026 | [8] -0.011 | [9] 0.018 | IRAK-1-4 Inhibitor I -0.003 | ibrutinib -0.003 | [10] -0.047 | ralimetinib -0.042 | [11] -0.01 | [12] 0.066 | [13] -0.011 | pinometostat 0.034 | [14] -0.022 | [15] 0.014

GGCT (UniProt O75223)
inactive: erlotinib 0.037 | [1] 0.009 | [2] 0.043 | [3] -0.015 | [4] 0.016 | [5] 0.003 | [6] 0.009 | [7] -0.009 | [8] 0.033 | [9] 0.032 | IRAK-1-4 Inhibitor I 0.045 | ibrutinib -0.04 | [10] 0.003 | ralimetinib -0.074 | [11] -0.008 | [12] 0.007 | [13] -0.011 | pinometostat -0.016 | [14] -0.009 | [15] 0.003

FTH1 (UniProt P02794)
inactive: erlotinib -0.041 | [1] -0.043 | [2] -0.029 | [3] 0.102 | [4] -0.036 | [5] 0.074 | [6] -0.046 | [7] 0.007 | [8] 0.02 | [9] -0.039 | IRAK-1-4 Inhibitor I -0.042 | ibrutinib 0.006 | [10] -0.067 | ralimetinib 0.096 | [11] 0.115 | [12] 0.015 | [13] 0.14 | pinometostat 0.024 | [14] 0.143 | [15] -0.005

GGH (UniProt Q92820)
inactive: erlotinib 0.008 | [1] 0.017 | [2] 0.025 | [3] 0.021 | [4] -0.031 | [5] -0.052 | [6] 0.006 | [7] -0.018 | [8] 0.034 | [9] 0.02 | IRAK-1-4 Inhibitor I 0.038 | ibrutinib 0.048 | [10] -0.003 | ralimetinib -0.06 | [11] 0.005 | [12] 0.011 | [13] -0.002 | pinometostat -0.022 | [14] -0.01 | [15] 0

FTO (UniProt Q9C0B1)
inactive: erlotinib 0.008 | [1] -0.104 | [2] 0.052 | [3] 0.002 | [4] 0.003 | [5] 0.106 | [6] 0.026 | [7] 0 | [8] -0.013 | [9] 0.065 | IRAK-1-4 Inhibitor I 0.075 | ibrutinib -0.019 | [10] 0.021 | ralimetinib -0.03 | [11] -0.061 | [12] 0.066 | [13] -0.029 | pinometostat -0.04 | [14] -0.018 | [15] 0.008

GART (UniProt P22102)
inactive: erlotinib 0.064 | [1] 0.093 | [2] 0.034 | [3] -0.032 | [4] 0.074 | [5] -0.025 | [6] 0.118 | [7] 0.043 | [8] 0.003 | [9] -0.064 | IRAK-1-4 Inhibitor I -0.041 | ibrutinib -0.008 | [10] -0.013 | ralimetinib 0.006 | [11] 0.009 | [12] -0.188 | [13] -0.045 | pinometostat 0.021 | [14] -0.05 | [15] 0.003

GBA (UniProt P04062)
inactive: erlotinib -0.028 | [1] 0.156 | [2] -0.005 | [3] 0.021 | [4] -0.198 | [5] 0.017 | [6] 0.008 | [7] -0.023 | [8] -0.039 | [9] 0.018 | IRAK-1-4 Inhibitor I -0.02 | ibrutinib -0.001 | [10] 0.002 | ralimetinib -0.031 | [11] -0.001 | [12] 0.028 | [13] 0.113 | pinometostat -0.032 | [14] 0.04 | [15] 0.09

FUS (UniProt P35637)
inactive: erlotinib -0.023 | [1] -0.136 | [2] -0.165 | [3] 0.023 | [4] -0.149 | [5] 0 | [6] -0.045 | [7] -0.009 | [8] 0.026 | [9] -0.026 | IRAK-1-4 Inhibitor I -0.134 | ibrutinib 0.042 | [10] 0.07 | ralimetinib 0.11 | [11] 0.105 | [12] 0.187 | [13] 0.058 | pinometostat 0.016 | [14] 0.033 | [15] 0.251

GAPDH (UniProt P04406)
inactive: erlotinib -0.004 | [1] 0.045 | [2] 0.005 | [3] 0.007 | [4] -0.085 | [5] -0.02 | [6] 0.069 | [7] 0.005 | [8] -0.017 | [9] 0.063 | IRAK-1-4 Inhibitor I 0.037 | ibrutinib 0.021 | [10] 0.018 | ralimetinib -0.007 | [11] 0.044 | [12] 0.076 | [13] -0.045 | pinometostat -0.099 | [14] -0.03 | [15] 0.02

G3BP2 (UniProt Q9UN86)
inactive: erlotinib -0.089 | [1] -0.025 | [2] -0.301 | [3] 0.117 | [4] -0.043 | [5] 0.033 | [6] -0.135 | [7] -0.042 | [8] 0.106 | [9] -0.122 | IRAK-1-4 Inhibitor I -0.154 | ibrutinib 0.05 | [10] 0.102 | ralimetinib 0.058 | [11] 0.068 | [12] -0.028 | [13] 0.064 | pinometostat 0.249 | [14] -0.015 | [15] -0.427

GCAT isoform 2 (UniProt O75600)
inactive: erlotinib -0.032 | [1] 0.112 | [2] 0.078 | [3] 0.018 | [4] 0.051 | [5] -0.038 | [6] -0.121 | [7] -0.092 | [8] -0.004 | [9] 0.015 | IRAK-1-4 Inhibitor I 0.066 | ibrutinib 0.046 | [10] 0.03 | ralimetinib 0.039 | [11] -0.081 | [12] -0.126 | [13] 0.066 | pinometostat -0.009 | [14] 0.06 | [15] -0.007

Copied from the results shown (2 entries):
GAPDH (UniProt P04406)
inactive: erlotinib -0.004 | [1] 0.045 | [2] 0.005 | [3] 0.007 | [4] -0.085 | [5] -0.02 | [6] 0.069 | [7] 0.005 | [8] -0.017 | [9] 0.063 | IRAK-1-4 Inhibitor I 0.037 | ibrutinib 0.021 | [10] 0.018 | ralimetinib -0.007 | [11] 0.044 | [12] 0.076 | [13] -0.045 | pinometostat -0.099 | [14] -0.03 | [15] 0.02

G3BP2 (UniProt Q9UN86)
inactive: erlotinib -0.089 | [1] -0.025 | [2] -0.301 | [3] 0.117 | [4] -0.043 | [5] 0.033 | [6] -0.135 | [7] -0.042 | [8] 0.106 | [9] -0.122 | IRAK-1-4 Inhibitor I -0.154 | ibrutinib 0.05 | [10] 0.102 | ralimetinib 0.058 | [11] 0.068 | [12] -0.028 | [13] 0.064 | pinometostat 0.249 | [14] -0.015 | [15] -0.427

Next part

GATAD2A isoform 3 (UniProt Q86YP4)
inactive: erlotinib 0.02 | [1] 0.03 | [2] 0.033 | [3] -0.013 | [4] 0.034 | [5] -0.021 | [6] 0.095 | [7] -0.032 | [8] -0.068 | [9] -0.041 | IRAK-1-4 Inhibitor I -0.048 | ibrutinib -0.044 | [10] -0.072 | ralimetinib 0.036 | [11] -0.115 | [12] -0.204 | [13] -0.001 | pinometostat -0.032 | [14] 0.015 | [15] 0.043

GEMIN4 (UniProt P57678)
inactive: erlotinib 0.084 | [1] -0.163 | [2] -0.522 | [3] -0.019 | [4] -0.152 | [5] -0.034 | [6] -0.009 | [7] 0.058 | [8] 0.011 | [9] -0.322 | IRAK-1-4 Inhibitor I -0.241 | ibrutinib 0.114 | [10] 0.224 | ralimetinib 0.129 | [11] -0.001 | [12] -0.268 | [13] 0.147 | pinometostat 0.407 | [14] -0.031 | [15] -0.75

G3BP1 (UniProt Q13283)
inactive: erlotinib -0.076 | [1] -0.061 | [2] -0.311 | [3] 0.013 | [4] -0.042 | [5] -0.031 | [6] -0.016 | [7] -0.034 | [8] 0.089 | [9] -0.058 | IRAK-1-4 Inhibitor I -0.098 | ibrutinib 0.081 | [10] 0.036 | ralimetinib 0.139 | [11] 0.106 | [12] -0.07 | [13] 0.1 | pinometostat 0.165 | [14] 0 | [15] -0.211

GADD45GIP1 (UniProt Q8TAE8)
inactive: erlotinib -0.065 | [1] -0.095 | [2] -0.03 | [3] 0.014 | [4] -0.066 | [5] -0.006 | [6] -0.011 | [7] 0.09 | [8] 0.062 | [9] -0.015 | IRAK-1-4 Inhibitor I -0.008 | ibrutinib -0.016 | [10] 0.071 | ralimetinib 0.052 | [11] -0.055 | [12] 0.007 | [13] 0.112 | pinometostat 0.01 | [14] 0.006 | [15] -0.074

GANAB isoform 2 (UniProt Q14697)
inactive: erlotinib -0.045 | [1] -0.021 | [2] -0.027 | [3] -0.01 | [4] -0.025 | [5] -0.017 | [6] -0.01 | [7] 0.055 | [8] -0.012 | [9] -0.035 | IRAK-1-4 Inhibitor I -0.072 | ibrutinib -0.036 | [10] 0 | ralimetinib 0.006 | [11] 0.036 | [12] -0.039 | [13] 0.012 | pinometostat 0.004 | [14] -0.005 | [15] -0.012
